Data set [1] addresses T1, RAD54 1-142 33AAAA36 R33A,K34A,R35A,K36A (human) (UniProt Q92698).
T1 sequence (looked up): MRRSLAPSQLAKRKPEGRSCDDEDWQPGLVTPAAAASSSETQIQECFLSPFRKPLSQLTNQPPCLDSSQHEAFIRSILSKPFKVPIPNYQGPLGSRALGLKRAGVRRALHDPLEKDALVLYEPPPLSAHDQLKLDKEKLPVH
Put plainly: EMSA. The settings on record: only smearing at 0.5 uM protein, 5 mM Mg2+, 2 mM ATP, 25 mM Tris-acetate pH 7.5, 5 mM Mg acetate, 100 ug/ml BSA, 2 mM DTT, 10% glycerol, 4 C, 45 min, 30 nM PX junction, 6% native PAGE in 0.25x TBE, recombinant protein, residues 1-142, protein details: Sumo-His, cleaved, label: 32P (unlabeled as competitor), folded or branched DNA. (In EMSA bound probe runs differently from free probe, usually more slowly.)

The next data set deals with T2, RAD54 1-142 S49E (human) (UniProt Q92698).
T2 sequence (looked up): T1 sequence (looked up) with A33R, A34K, A35R, A36K, S49E
Put plainly: EMSA. The settings on record: large complexes reduced, small complexes unaffected, 5 mM Mg2+, 2 mM ATP, 25 mM Tris-acetate pH 7.5, 5 mM Mg acetate, 100 ug/ml BSA, 2 mM DTT, 10% glycerol, 4 C, 45 min, 30 nM PX junction, 6% native PAGE in 0.25x TBE, recombinant protein, residues 1-142, protein details: Sumo-His, cleaved, label: 32P (unlabeled as competitor), folded or branched DNA.

From article PMC5750232, “RAD54 N-terminal domain is a DNA sensor that couples ATP hydrolysis with branch migration of Holliday junctions” (Nature Communications, 2018) come the findings set out here.

Changes are numbered by the printed parent chain. A weaker result is weaker than the reference pair of the same experiment. Protein sequences can lack the tags named with them.

As for “GACGCTGCCGAATTCTACCAGTGCCTTGCTAGGACATCTTTGCCCACCTGCAGGTTCACCC / TGGGTGAACCTGCAGGTGGGCAAAGATGTCCTAGCAATGTAATCGTCAAGCTTTATGCCGTT / CAACGGCATAAAGCTTGACGATTACATTGCTAGGACATGCTGTCTAGAGGATCCGACTATCGA / TCGATAGTCGGATCCTCTAGACAGC [non-mobile PX junction (174/175/176/181)]”, the binding result (in data set [1]; with RAD54 1-142 S49E (human)) was “binds more weakly” each time.
